No constants are given. Whether binding was seen depends on the method and setting. Binding seen in cells or lysates may run through a third protein. Some entries that bind do so weakly or less than the wild type.
Assays:
[1] = target: Methyl CpG binding domain protein 4 (MBD4) (mouse (endogenous in CH12.F3)) (UniProt Q9Z2D7); test: co-IP; nuclear extracts (100 µg) of CH12.F3 cells induced with CIT for 24 hours; IP with anti-MLH1 or anti-MBD4 Abs (anti-GFP as control) and protein-A beads, 4°C; DTT omitted, final NaCl 100 mM; Western blot
[2] = target: MutL homologue 1 (MLH1) (mouse (endogenous in CH12.F3)) (UniProt Q9JK91); test: as above

Sequences of proteins named here, by UniProt entry; tags and fusion partners are left off.
UniProt Q9Z2D7: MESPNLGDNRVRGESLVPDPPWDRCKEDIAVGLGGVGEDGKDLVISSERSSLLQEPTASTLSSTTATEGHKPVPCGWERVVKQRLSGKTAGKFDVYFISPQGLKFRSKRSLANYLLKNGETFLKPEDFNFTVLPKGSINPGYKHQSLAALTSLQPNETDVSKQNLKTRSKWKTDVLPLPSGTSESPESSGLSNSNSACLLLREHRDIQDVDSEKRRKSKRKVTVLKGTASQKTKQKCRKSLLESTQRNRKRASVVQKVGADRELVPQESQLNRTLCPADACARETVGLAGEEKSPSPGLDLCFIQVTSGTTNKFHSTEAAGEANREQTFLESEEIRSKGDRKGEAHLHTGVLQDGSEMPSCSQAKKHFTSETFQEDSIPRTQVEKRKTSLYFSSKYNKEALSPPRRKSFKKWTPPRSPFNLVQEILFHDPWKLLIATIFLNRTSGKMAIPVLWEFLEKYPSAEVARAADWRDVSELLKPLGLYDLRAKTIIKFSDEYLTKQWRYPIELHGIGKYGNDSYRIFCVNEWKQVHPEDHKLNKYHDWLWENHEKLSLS
UniProt Q9JK91: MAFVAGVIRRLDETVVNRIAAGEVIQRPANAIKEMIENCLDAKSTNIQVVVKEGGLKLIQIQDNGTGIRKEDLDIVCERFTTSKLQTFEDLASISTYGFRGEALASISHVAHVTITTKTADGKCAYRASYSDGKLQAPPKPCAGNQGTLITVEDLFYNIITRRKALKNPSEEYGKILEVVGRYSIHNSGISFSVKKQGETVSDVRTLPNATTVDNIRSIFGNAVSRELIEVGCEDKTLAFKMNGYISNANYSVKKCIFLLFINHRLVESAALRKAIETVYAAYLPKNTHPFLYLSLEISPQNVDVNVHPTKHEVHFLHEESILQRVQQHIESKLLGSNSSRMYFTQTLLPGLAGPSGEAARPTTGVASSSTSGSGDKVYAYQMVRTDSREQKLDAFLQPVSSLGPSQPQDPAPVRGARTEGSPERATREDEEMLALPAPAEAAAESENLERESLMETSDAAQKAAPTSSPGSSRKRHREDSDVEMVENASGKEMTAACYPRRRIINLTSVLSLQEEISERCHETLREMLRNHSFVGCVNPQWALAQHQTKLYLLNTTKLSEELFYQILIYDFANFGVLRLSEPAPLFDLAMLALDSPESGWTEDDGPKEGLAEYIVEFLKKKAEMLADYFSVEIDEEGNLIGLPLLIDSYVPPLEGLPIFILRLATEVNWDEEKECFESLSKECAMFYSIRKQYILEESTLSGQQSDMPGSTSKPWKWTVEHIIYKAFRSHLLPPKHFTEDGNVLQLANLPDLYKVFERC

binding [1]	binding [2]	Substance
binds	–	MutL homologue 1 (MLH1) (from UniProt Q9JK91 1-760)
–	binds	Methyl CpG binding domain protein 4 (MBD4) (from UniProt Q9Z2D7 1-554)
